Test results reported in paper PMC4332865.
For some of these results: No signal at the amounts used counts as a negative. For some of these results: At least one verdict was read from the data and is not stated in words by the source. The exact form of at least one protein or probe is not confirmed. For some of these results: A weaker result is weaker than the reference pair of the same experiment.

By UniProt entry, the sequences of proteins in these tests, tags left out. Residues count along the entry.
UniProt Q61701, 3-385 T149A/T165A: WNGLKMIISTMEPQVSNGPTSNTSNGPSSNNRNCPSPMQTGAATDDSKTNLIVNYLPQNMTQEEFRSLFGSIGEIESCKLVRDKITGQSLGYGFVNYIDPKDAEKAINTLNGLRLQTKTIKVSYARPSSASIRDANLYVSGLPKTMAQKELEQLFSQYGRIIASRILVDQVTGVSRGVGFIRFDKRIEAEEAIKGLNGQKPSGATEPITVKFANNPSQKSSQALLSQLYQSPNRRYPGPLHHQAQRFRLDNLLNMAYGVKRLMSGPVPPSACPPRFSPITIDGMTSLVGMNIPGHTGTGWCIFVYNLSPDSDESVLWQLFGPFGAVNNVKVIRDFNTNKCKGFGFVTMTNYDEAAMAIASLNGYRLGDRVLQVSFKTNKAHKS

Columns and labels:
[1] = molecular target: GST-HuDpd T149A,T165A (mouse) (UniProt Q61701); test: EMSA; conditions: 2 uM protein, 2 nM RNA, 150 mM NaCl, 20 mM Tris (pH not stated), 1.5 mM MgCl2, 0.5 mM DTT, 0.5 ug/ul tRNA, 20 min, room temperature, 5% PAGE in TBE, recombinant protein, residues 3-385, protein details: N-terminal GST (pGEX-2T), label: biotin (unlabeled as competitor), probe letters rebuilt from the primers and the genome, part of a longer molecule
[2] = molecular target: GST-HuDpd T149A,T165A (mouse) (UniProt Q61701); test: competition with a labelled probe; conditions: 8 nM unlabeled vs 2 nM labeled Nova1 A, 150 mM NaCl, 20 mM Tris (pH not stated), 1.5 mM MgCl2, 0.5 mM DTT, 0.5 ug/ul tRNA, 20 min, room temperature, 5% PAGE in TBE, recombinant protein, residues 3-385, protein details: N-terminal GST (pGEX-2T), label: biotin (unlabeled as competitor), probe letters rebuilt from the primers and the genome, part of a longer molecule

Sequence	binding result ([1]; little or no shift)	binding result ([2]; does not compete)	binding result ([1]; smaller shift than B1, B3)	binding result ([2]; competes)	binding result ([1]; among greatest shifts)
AUGACCAUCCUUUUCCUUACUAUGGUUAUUUCAUACUUCGGUUGCAUGAAGGCGGCGCCCAUGAAAGAAGUAAACGUCCACGGACAAGGCAACUUGGCCUACCCAGGUGUGCGGACCCAUGGGACUCUGGAGAGCGUGAAUGGGCCCAGGGCAGGUUCGAGAGGUCUGACGACGACAUCACUGGCUGACACUUUUGAGCACGUCAUCGAAGAGCUGCUGGAUGAGGACCAGAAGGUUCGGCCCAACGAAGAAAACCAUAAGGACGCGGACUUGUACACUUCCCGGGUGAUGCUCAGCAGUCAAGUGCCUUUGGAGCCUCCUCUACUCUUUCUGCUGGAGGAAUACAAAAAUUACCUGGAUGCCGCAAACAUGUCUAUGAGGGUUCGGCGCCACUCCGACCCUGCCCGCCGUGGGGAGCUGAGCGUGUGUGACAGUAUUAGCGAGUGGGUCACAGCGGCAGAUAAAAAGACUGCAGUGGACAUGUCUGGCGGGACGGUCACAGUCCUAGAGAAAGUCCCGGUAUCCAAAGGCCAACUGAAGCAGUAUUUCUACGAGACCAAGUGUAAUCCCAUGGGUUACACCAAGGAAGGCUGCAGGGGCAUAGACAAAAGGCACUGGAACUCGCAAUGCCGAACUACCCAAUCGUAUGUUCGGGCCCUUACUAUGGAUAGCAAAAAGAGAAUUGGCUGGCGAUUCAUAAGGAUAGACACUUCCUGUGUAUGUACACUGACCAUUAAAAGGGGAAGAUAG [Bdnf CDS probe]	binds more weakly	no binding			
CCUGCGGAGGCUAAGUGGAGCUGACAUACUAUUUCCUGGCAGUGCAGGAGGAAUUUCUGAGUGGCCAUCCUAAGGUCUAGGAUGGAGGUGGGGAAUGGUACUUGAGACAUUCCUAAAGGAAGGCUCGGAAGCACCCUUCAGAGCAGGCUCUGGAAUGAUGUGUCAAGUUGCUUAGGCCUUCUGCUUUAAGUGCCUACAUUACCUAACAGUGCUCAAGAGGUUCUCGAUUGGAGAACCACACUCAAAUCCAUUUAUAGCCUCCAUCCCAUUUCUAAAUAAUUGUGUAUAAAGUUGGAUUAACCUGGAGCAACUUUGGAUCCAAAUAUGGCACAGCAAUAAUGAUAUUAAUGCAGCAUGAUGGGAAAUGUUUGCUGUGAAGAGAAUUGAUUUGCUUUGAGCUUAGACUUCAGGAAGCCUAGGUUUUUUAUUUUUUUAUUUUUGAGACAUUUUGGUAAAAGGAAAAAAAGAAAACAAACAAACAAACAAACAAAACCAGAAAAAGCAUCAAAACUCAGGCAGAAUGAGCAAUGUCUGAAAGGGCUAGAAAAACAAGACAUAGCAAGGUGCUUUCACUGUGAAAGAGACAAGAACACAGGAGGAAAUAUUGCUUCAGUGAAGAGCACAGACGGCUCCUGCCAAUUUAUUACAAGAGUCCCGUCUGUACUUUACCCUUUGGGGUUAGAAGUCAAGUUGGAAGCCUGAAUGAAUGGACCCAAUGAGAACUAGUGUUAAGCCCAUUUCCCUAGUCAGGUUUUUUUCAAGCGUGAAUGUGUUAGUGGUUACUCUCCUGGGUUCCUGAGCAUCAGAAAAAAAAAAAAAAAGAGGCAAACAAUCGCUUCAUCUUAGGAGUG [Bdnf 3'UTR B2]			binds	binds	
CUCUUUCAGAAAACAGAUUAAAAAAACAAAAAACAAAAAAAAAAAAACAAAAAACAAAAACAAAAAUUGGAACCAAAACAUUCCGUUUACAUUUUAGACACUAAGUAUCUUCGUUCUUGUUAGUACUCUGUUUUACUGCUUUCGACUUCUGAUAGCGUUGGAAUUAAAACAAUGUCAAGGUGCUGUUGUCAUUGCUUUACUGGCGUAAGGGACGGGGAAUGGGAGGGGUAGAUUUCUGUUUGUUUUGUGUUUUAUUUUGUUUGUUUGUUUGUUUUGUUUUUUAGUUCCACCCGGAGUAGGGAUGGAGAAAAUUUCUUCACUAUCCAUUCUGGUUGAUAAAGCGUUACAUUUGUAUGUUGUAAAGAUGUUUGCAAAAUCCAAUCAGAUGACUGGAAAACAAAUAAAAAUUAAGGCAACUGAAUAAAAUGCUCACACUCCACUGCCCAUGAUGUAUCUCCCUGGUCCCCCUCAGCUCACUCUUCUGGCAUGGGUCAGGGAAAAUUGCUUUUAUUGGAAAGACCAGCAUUUGUUCAAAGCAUACUCUUUCCCUCCCUCCUCCCAUUUUGGUCCCUUCUUUUUGUUUUGUUUUAAGAAAGAAAAUUAAGUUGCGCGCUUUAAAAUAUUUUACUACUGCUACAAACAGAUGAACAAUGUGUGUCAUUUUAUGACACUCAUGGAAAACAGUGAUUUUUUUUUACCCUAAAGAAAAACAAAUAAAAAUAACCCAAAAUAUUCUUUUUUUAAAAGGCAUAAAUAUUGGGUAAAUUGUAAUAUGGCCUAACAGUGUUUGCAGAUAAAAGUUAUUGUAUACACCCAGAUACUUAGAUAAGAGCAGGGAUCCACACUGCCAUUGAAAUAGGACUGAAUGGCCCU [Bdnf 3'UTR B1]				binds	binds
GAAAGGAAACAGAAGUGGACGUCCGCUGUGACUCAGGGAGUGAAGAUACCAUCAGCAAAUAGUUUCUUUUUUGUUCAUUCGUUCCUUUCGAGUUAGCCUGUCUUUUGGAAUACCACUGAAUAUGCUGUUUUUGAAAGACUUCAUGUAGCAUAGAUUGUUUUGUGCCGUUUACCAAAUUAACCUUUGUCAUCGUUUUUUAACCUAUUCAGGAAUGCUUGGAAUAUCUGCUCUAUGUUAACUUUUUGCAGCUUCAUUCUGAGAGACAUUAGUCAAACAAACAAAAGGAUCCCCAUCACAAUCUUACAGUACUGCAAGGGCCAGGUCUGUUAAUCGGCUUCACAGGAGACAUCAGCAAUUGUGUGGUCAGUGGCUGGCUCUCUUACCCACUAAGAUACAUCAUAGCUACAUGUUGGUGGUUUAUGUUGACCUGAGAUUUAUUUGUUAAAAUCUCUUCUUCGUUUCUGUUCGUUCUGGUUCUGUUCUGUUCUGUUCUGUUCUGUUUUGGUUUUAAAGUCUUGCUGUGGUCUCUUGUUGGCAGAAAUGUUUUAUGCAUGGCAGCAGGCCUGUUGCUUUUUUAUAGUGAUUCCCAUUGAAACUGUAAGUAAAUGUCUGUGGCCUUGUUCUCUCUAUGGUAAAGAUAUUAUUCACCAUGUAAAACAAGAAAAAAUAUUUAUUGUAUUUUAGUAUAUUUAUAUAAUUAUGUUAUUGAAAAAAUUGGCAUUAAAACUUAACCACAUCAGAAGCCUAUUGUAAAUACAGGUUCUAUUUAAGUGUACCAAUUAACAUAUAAUAUAUGUUUUAAAUAUAGAAUUUUUAAUGUUUUUAAAUAUAUUUUCAAA [Bdnf 3'UTR B3]				binds	binds
UGGAUUUAUGUUGUAUAGAUUAUAUUGAGACAAAAUUAUCUAUUUGUAUAUAUACAUAACAGGGUAAAUUAUUCAGUUAAGAAAAAAUAAUUUUAUGAACUGCAUGUAUAAAUGAAGUUUAUACAGUACAGUGGUUCUACAAUCUAUUUAUUGGACAUAUCCAUGACCUGAAAGGAAACAGUCAUUUGCGCACAACUUUAAAAGUCUGCAUUACAUUCCUCGAUAAUGUUGUGGUUUGUUGCCGUUGCCAAGAAUUGAAAACAAAAAGUUUAAAAAAAAUAAUAAUAAAUUGCAUGCUGCUUUAAUUGUGAAUUGAUAAUAAACUGUCCCUCUUUCAGAAAACAGAUU [Bdnf 3'UTR A (short)]	binds more weakly	no binding			
